Results taken from patent US20030022345A1 (Human Genome Sciences, published 2003).

Chains of the proteins cited; added tags and fusions are not shown. Residues count along the entry.
UniProt Q14152, 2-1382: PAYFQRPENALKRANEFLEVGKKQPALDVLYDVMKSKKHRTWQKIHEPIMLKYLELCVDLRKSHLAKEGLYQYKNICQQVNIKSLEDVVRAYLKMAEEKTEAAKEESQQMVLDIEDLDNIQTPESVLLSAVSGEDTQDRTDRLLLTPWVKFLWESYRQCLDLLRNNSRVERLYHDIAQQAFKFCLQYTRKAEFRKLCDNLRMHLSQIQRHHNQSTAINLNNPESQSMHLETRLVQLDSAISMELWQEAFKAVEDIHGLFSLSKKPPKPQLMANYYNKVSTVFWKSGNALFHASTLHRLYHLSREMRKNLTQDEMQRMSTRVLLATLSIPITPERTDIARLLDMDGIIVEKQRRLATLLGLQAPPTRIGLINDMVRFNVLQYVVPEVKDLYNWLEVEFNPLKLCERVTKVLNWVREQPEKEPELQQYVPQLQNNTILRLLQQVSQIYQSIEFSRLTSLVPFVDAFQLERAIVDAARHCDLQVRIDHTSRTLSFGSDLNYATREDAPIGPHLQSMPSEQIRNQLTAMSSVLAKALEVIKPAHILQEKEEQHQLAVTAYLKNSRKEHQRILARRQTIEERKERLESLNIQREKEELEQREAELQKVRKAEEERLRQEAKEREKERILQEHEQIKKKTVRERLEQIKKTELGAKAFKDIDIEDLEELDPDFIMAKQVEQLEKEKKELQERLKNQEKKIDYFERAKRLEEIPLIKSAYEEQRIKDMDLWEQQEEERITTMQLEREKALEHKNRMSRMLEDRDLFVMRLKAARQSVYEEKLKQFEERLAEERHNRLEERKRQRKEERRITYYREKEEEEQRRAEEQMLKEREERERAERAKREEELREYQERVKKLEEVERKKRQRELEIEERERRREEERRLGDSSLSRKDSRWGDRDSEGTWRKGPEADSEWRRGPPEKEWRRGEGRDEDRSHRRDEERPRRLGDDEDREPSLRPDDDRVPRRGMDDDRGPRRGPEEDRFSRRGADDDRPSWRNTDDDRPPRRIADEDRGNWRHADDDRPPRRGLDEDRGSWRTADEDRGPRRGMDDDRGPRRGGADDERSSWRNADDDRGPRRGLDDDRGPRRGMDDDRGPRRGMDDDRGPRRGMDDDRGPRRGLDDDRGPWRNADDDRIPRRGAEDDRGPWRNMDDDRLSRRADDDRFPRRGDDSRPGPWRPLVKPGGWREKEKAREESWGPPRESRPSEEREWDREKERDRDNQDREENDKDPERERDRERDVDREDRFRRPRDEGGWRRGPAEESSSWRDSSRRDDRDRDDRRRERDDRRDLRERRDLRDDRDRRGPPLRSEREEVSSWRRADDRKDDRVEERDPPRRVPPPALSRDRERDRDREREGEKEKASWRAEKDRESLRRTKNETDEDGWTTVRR

Target: T1, p170 subunit of eIF3 (170 kDa protein in HeLa cytoplasmic extract) (human (HeLa cells), UniProt Q14152 2-1382)
T1 construct: Denatured, on a blot after SDS-PAGE; also called pl70
Assay: Far Western, 32P-labeled probe on blotted HeLa cytoplasmic extract
Method: The membranes were blocked overnight with 5% milk in HBB buffer (25 mM HEPES-KOH, pH 7.5, 25 mM NaCl, 5 mM MgCl, 1 mM DTT), and incubated 4 hours in hybridization buffer (20 mM HEPES-KOH pH 7.5, 75 mM KCl, 2.5 mM MgCl , 0.1 mM EDTA, 1 mM DTT, 0.1% NP-40, 1% milk) containing the ³²P-labeled FLAG-HMK- or GST-FLAG-HMK-hPrt1 at 250,000 cpm/ml and unlabeled purified GST at 1 μg/ml. The membranes were washed 3 times with hybridization buffer and processed for autoradiography.
To further substantiate the finding that hPrt1 is a subunit of human eIF3, we examined the possibility that hPrt1 interacts directly with one or more eIF3 subunits. To this end, hPrt1 was tagged with a FLAG peptide linked to a heart muscle kinase site (FLAG-HMK) or fused to a glutathione-S-transferase-FLAG-HMK sequence (GST-FLAG-HMK). We opted to use fragments of hPrt1 rather than the full length protein due to the low yield and extensive degradation of full length hPrt1 in E. coli. The proteins were purified using a FLAG antibody or glutathione-sepharose resin, and were ³²P-labeled with heart muscle kinase. The labeled proteins were then used to detect interacting proteins by the Far Western assay with HeLa cytoplasmic extracts, rabbit reticulocyte lysate and different preparations of eIF3. […] The hPrt1 probes reacted with a 140 kDa protein in eIF3 preparation 1 and 140 and 170 kDa polypeptides in eIF3 preparation 2. […]

binding result: binds
B1: N90146 (FLAG-HMK fusion of amino acids 147-873 of hPrt1) (other)
chain: DADEPSFSDPEDFVDDVSEEELLGDVLKDRPQEADGIDSVIVVDNVPQVGPDRLEKLKNVIHKIFSKFGKITNDFYPEEDGKTKGYIFLEYASPAHAVDAVKNADGYKLDKQHTFRVNLFTDFDKYMTISDEWDIPEKQPFKDLGNLRYWLEEAECRDQYSVIFESGDRTSIFWNDVKDPVSIEERARWTETYVRWSPKGTYLATFHQRGIALWGGEKFKQIQRFSHQGVQLIDFSPCERYLVTFSPLMDTQDDPQAIIIWDILTGHKKRGFHCESSAHWPIFKWSHDGKFFARMTLDTLSIYETPSMGLLDKKSLKISGIKDFSWSPGGNIIAFWVPEDKDIPARVTLMQLPTRQEIRVRNLFNVVDCKLHWQKNGDYLCVKVDRTPKGTQGVVTNFEIFRMREKQVPVDVVEMKETIIAFAWEPNGSKFAVLHGEAPRISVSFYHVKNNGKIELIKMFDKQQANTIFWSPQGQFVVLAGLRSMNGALAFVDTSDCTVMNIAEHYMASDVEWDPTGRYVVTSVSWWSHKVDNAYWLWTFQGRLLQKNNKDRFCQLLWRPRPPTLLSQEQIKQIKKDLKKYSKIFEQKDRLSQSKASKELVERRRTMMEDFRKYRKMAQELYMEQKNERLELRGGVDTDELDSNVDDWEEETIEFFVTEEIIPLGIRSDLEHCAQPCVLWSRGRPAGSRVTPASSLCSLALDCDCAWILPLRHIFVPFSPWCLQWGI
modifications: 32P-labeled with heart muscle kinase at the HMK site (as Far Western probe)
notes: also called FLAG-HMK N90146; hPrt1 N90146; not shown: FLAG-HMK leader of vector pAR90[59/69]
